Target: αvβ3 integrin (Homo sapiens, UniProt P05106+P06756)
Assay: Assay for the inhibition of αvβ3 integrin binding (vitronectin as ligand)
Set-up: purchased Chemicon International, Inc., USA
Details: IC50 (nM) αvβ3 integrin binding, inhibition of specific binding of biotinylated human vitronectin to immobilized αvβ3 integrin
Procedure: Experiment 1: Assay for the Inhibition of αvβ3 integrin binding
This experiment was carried out based on the method described in […].
Purified human αvβ3 integrin (Chemicon International, Inc., USA) was adjusted to a concentration of 1 μg/ml with TBS^++ [20 mM Tris-HCl (pH 7.4), 150 mM NaCl, 1 mM CaCl2, 1 mM MgCl2], and the diluted solution was added to plates (Labsystems, Finland) at 50 μl/well. The plate was left at 4° C. overnight for immobilization of the αvβ3 integrin. All subsequent steps were done at 25° C., and the procedure for each well was described hereafter.
The solution was discarded, and then 200 μl of TBS^++ containing 1% BSA (Wako Pure Chemical Industries, Ltd., Japan) was added to the well and left for one hour for blocking. The well was washed with a wash solution (TBS^++ containing 0.01% Tween 20) 4 times, and 50 μl of a reaction solution (TBS^++ containing 0.1% BSA and 0.01% Tween 20) was added to the well. […]
The absorbance at 450 nm was measured with a plate reader (Molecular Devices, USA) to obtain a total binding. […] A specific binding was calculated by subtracting the nonspecific binding from the total binding.

By UniProt entry, the sequences of proteins in these tests, tags left out. Residues count along the entry.
UniProt P05106, 27-788: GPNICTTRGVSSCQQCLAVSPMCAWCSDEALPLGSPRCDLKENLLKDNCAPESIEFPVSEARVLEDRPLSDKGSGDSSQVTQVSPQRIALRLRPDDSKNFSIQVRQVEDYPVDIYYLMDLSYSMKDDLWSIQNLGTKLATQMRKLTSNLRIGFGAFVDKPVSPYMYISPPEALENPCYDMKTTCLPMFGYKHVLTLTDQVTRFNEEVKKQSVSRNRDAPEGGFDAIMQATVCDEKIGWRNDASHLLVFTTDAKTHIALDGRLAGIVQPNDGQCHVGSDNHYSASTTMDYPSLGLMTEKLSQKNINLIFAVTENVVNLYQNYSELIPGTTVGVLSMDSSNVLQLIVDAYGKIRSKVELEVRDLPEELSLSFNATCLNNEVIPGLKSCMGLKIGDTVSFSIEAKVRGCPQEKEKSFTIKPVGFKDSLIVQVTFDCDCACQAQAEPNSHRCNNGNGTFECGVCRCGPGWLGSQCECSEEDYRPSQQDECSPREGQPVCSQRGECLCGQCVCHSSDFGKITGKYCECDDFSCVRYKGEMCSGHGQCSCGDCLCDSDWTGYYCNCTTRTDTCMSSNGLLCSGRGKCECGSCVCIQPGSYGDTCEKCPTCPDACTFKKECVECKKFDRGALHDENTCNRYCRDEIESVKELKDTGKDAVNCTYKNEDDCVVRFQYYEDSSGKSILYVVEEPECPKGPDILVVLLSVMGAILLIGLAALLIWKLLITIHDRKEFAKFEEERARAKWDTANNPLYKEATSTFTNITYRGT
UniProt P06756, 891-1048 partner limits assumed: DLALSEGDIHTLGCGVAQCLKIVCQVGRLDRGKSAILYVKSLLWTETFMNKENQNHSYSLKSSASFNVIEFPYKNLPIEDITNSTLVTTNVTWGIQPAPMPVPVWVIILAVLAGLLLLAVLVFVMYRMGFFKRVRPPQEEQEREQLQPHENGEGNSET
UniProt P06756, 31-889 limits assumed: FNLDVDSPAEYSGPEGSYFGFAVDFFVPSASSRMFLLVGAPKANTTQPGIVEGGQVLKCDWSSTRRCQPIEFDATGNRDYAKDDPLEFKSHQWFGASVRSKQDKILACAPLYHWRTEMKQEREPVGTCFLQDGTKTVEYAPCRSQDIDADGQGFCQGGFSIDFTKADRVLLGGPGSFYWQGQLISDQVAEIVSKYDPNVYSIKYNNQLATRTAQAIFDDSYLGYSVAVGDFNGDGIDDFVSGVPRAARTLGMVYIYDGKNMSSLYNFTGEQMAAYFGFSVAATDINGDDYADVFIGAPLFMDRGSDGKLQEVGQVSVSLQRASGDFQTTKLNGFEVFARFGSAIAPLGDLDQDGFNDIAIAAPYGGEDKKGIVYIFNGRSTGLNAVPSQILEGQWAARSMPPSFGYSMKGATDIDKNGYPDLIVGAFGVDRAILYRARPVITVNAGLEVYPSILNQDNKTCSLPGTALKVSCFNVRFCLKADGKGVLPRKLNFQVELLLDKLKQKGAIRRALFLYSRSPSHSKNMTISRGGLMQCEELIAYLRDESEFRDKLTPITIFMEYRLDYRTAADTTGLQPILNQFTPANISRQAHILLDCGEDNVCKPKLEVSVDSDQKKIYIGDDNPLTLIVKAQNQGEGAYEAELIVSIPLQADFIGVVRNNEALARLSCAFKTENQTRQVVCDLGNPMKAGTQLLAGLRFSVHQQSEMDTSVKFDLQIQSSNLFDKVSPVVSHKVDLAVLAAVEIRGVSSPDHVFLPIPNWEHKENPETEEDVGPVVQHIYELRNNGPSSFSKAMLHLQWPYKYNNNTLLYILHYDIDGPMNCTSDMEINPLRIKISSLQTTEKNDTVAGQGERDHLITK

C[C@H](NC(=O)[C@@H]1CSSC(C)(C)[C@H](NC(=O)CN)C(=O)NCC(=O)N[C@@H](CCCNC(=N)N)C(=O)NCC(=O)N[C@@H](CC(=O)O)C(=O)N[C@@H](CO)C(=O)N2CCC[C@H]2C(=O)N1)C(=O)O [RGD peptide, reference compound]
IC50: 3 nM
